Article PMC8490526
Results are given in words; binding and its absence hold for the method and conditions named. In cells and extracts the contact can be indirect. Some results given as binding are weak or reduced against the parent protein; the word gives no strength. For some assays here: Tags and fused reporters may be left off the sequences shown.

Assays:
[1] = molecular target: T1, TANK-binding kinase 1 (TBK1), endogenous in BV2 cells (mouse (endogenous in BV2)) (UniProt Q9WUN2); assay: co-IP; endogenous proteins in BV2 cells infected with HSV-1 (MOI 1), late phase of infection (24 h); also after transfection of LNA-Ctrl or LNA-466 (knock-down of linc-AhRA reduced the interaction); IP lysis buffer, overnight at 4 °C, immunoblot
T1 sequence: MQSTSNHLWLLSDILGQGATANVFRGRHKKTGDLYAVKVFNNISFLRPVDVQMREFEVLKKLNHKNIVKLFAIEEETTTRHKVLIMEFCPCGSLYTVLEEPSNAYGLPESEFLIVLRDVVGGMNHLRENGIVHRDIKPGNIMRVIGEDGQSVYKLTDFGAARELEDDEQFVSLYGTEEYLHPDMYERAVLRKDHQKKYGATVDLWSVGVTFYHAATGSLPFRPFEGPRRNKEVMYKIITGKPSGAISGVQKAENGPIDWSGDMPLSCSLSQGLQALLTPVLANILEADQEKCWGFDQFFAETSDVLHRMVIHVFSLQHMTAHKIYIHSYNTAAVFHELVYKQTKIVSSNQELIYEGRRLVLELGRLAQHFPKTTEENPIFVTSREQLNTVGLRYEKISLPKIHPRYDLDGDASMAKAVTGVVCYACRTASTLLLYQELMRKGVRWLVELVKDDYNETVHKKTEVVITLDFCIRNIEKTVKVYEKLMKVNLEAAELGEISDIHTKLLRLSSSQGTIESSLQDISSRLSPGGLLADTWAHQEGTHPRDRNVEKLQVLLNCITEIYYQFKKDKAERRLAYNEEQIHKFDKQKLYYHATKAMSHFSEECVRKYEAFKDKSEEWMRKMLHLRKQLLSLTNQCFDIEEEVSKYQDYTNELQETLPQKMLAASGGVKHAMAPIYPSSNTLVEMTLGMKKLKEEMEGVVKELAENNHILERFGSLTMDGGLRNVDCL

[2] = molecular target: T2, HA-TBK1 (mouse (cDNA of BV2 cells)) (UniProt Q9WUN2); assay: co-IP; HEK 293T cells co-transfected with FLAG-TRIM27 and HA-TBK1, with or without linc-AhRA or its 117nt fragment, for 42 h, then MG-132 (10 μM) for another 6 h; immunoblot
T2 sequence: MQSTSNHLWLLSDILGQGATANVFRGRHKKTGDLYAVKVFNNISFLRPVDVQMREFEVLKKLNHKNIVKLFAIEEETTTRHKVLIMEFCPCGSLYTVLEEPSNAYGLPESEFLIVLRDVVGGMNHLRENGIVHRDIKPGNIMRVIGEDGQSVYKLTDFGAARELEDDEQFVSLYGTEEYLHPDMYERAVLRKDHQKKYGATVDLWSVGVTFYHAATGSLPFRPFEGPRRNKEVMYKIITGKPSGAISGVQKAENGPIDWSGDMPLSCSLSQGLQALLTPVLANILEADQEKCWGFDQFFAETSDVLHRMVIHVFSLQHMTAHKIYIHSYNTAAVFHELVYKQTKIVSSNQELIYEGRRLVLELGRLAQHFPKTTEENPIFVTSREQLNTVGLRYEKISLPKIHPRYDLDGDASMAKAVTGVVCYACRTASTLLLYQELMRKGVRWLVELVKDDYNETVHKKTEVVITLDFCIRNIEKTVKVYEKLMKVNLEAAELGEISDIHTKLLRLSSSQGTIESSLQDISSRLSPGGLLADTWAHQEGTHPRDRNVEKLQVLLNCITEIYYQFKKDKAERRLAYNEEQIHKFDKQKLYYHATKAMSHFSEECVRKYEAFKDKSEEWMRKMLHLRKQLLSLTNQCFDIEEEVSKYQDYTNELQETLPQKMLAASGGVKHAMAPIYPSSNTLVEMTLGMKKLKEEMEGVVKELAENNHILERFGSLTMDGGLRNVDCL

B1: tripartite motif-containing 27 (TRIM27), endogenous in BV2 cells (protein, UniProt Q62158 1-513)
chain: MASGSVAECLQQETTCPVCLQYFVEPMMLDCGHNICCACLARCWGAAETNVSCPQCRETFPQRHMRPNRHLANVTQLVKQLRTERPSGPGGEMGVCEKHREPLKLYCEQDQMPICVVCDRSREHRGHSVLPLEEAVEGFKEQIQNRLDHLRRVKDLKKRRRAQGEQARAELLSLTQMEREKIVWEFEQLYHSLKEHEYRLLARLEELDLAIYNSINGAITQFSCNISHLSGLIAQLEEKQQQPTRELLQDIGDTLSRAERIRIPEPWITPPDLQEKIHIFAQKCLFLTESLKQFTEKMQSDMEKIQELREAQLYSVDVTLDPDTAYPSLILSDNLRQVRYSYLQQDLPDNPERFNLFPCVLGSPCFIAGRHYWEVEVGDKAKWTIGVCEDSVCRKGGVTSAPQNGFWAVSLWYGKEYWALTSPMTALPLRTPLQRVGIFLDYDAGEVSFYNVTERCHTFTFSHATFCGPVRPYFSLSYSGGKSAAPLIICPMSGIDGFSGHVGNHGHSMETSP
For B1, the binding [1] was “binds”.

B2: FLAG-TRIM27 (protein, UniProt Q62158 1-513)
chain: MASGSVAECLQQETTCPVCLQYFVEPMMLDCGHNICCACLARCWGAAETNVSCPQCRETFPQRHMRPNRHLANVTQLVKQLRTERPSGPGGEMGVCEKHREPLKLYCEQDQMPICVVCDRSREHRGHSVLPLEEAVEGFKEQIQNRLDHLRRVKDLKKRRRAQGEQARAELLSLTQMEREKIVWEFEQLYHSLKEHEYRLLARLEELDLAIYNSINGAITQFSCNISHLSGLIAQLEEKQQQPTRELLQDIGDTLSRAERIRIPEPWITPPDLQEKIHIFAQKCLFLTESLKQFTEKMQSDMEKIQELREAQLYSVDVTLDPDTAYPSLILSDNLRQVRYSYLQQDLPDNPERFNLFPCVLGSPCFIAGRHYWEVEVGDKAKWTIGVCEDSVCRKGGVTSAPQNGFWAVSLWYGKEYWALTSPMTALPLRTPLQRVGIFLDYDAGEVSFYNVTERCHTFTFSHATFCGPVRPYFSLSYSGGKSAAPLIICPMSGIDGFSGHVGNHGHSMETSP
In the case of B2, the binding [2] is reported as “binds”.
